Reference: US20260103453A1, “NOVEL PYRIMIDINE DERIVATIVE AS BRUTON'S TYROSINE KINASE INHIBITOR” (HANMI PHARM. CO., LTD., priority 2022, published 2026)
Some results were stated once for a whole list of compounds, not compound by compound. For at least one compound, name, drawing or mass did not settle the structure.

The chains behind the UniProt entries cited, without tags or fusion partners. Where a name states a change or a piece, a line headed by the entry shows the natural chain unless it says otherwise.
UniProt Q06187: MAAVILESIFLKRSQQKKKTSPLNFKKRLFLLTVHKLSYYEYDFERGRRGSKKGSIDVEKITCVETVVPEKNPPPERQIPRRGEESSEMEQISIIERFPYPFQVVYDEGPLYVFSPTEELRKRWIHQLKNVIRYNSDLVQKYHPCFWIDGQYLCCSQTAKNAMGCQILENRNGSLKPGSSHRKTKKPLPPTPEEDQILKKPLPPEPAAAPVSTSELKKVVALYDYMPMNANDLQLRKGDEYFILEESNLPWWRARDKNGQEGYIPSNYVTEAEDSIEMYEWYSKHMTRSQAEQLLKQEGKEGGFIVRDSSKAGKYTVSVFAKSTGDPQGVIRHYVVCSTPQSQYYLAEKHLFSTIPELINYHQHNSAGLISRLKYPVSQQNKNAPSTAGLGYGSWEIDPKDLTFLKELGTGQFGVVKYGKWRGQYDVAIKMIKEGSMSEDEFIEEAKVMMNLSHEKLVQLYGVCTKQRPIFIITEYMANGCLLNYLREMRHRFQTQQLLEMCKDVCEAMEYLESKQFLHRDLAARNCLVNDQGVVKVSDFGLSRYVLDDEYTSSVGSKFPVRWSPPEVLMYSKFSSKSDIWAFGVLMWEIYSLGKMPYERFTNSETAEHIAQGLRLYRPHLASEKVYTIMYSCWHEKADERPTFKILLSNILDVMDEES

Biological target: BTK enzyme (Homo sapiens, UniProt Q06187)
Experiment: Z'-LYTE kinase assay, BTK enzyme activity inhibition (ThermoFisher SelectScreen)
Format: biochemical
Conditions: summary in words of Table 1
Protocol: To do this, the SelectScreen profiling service was requested to the ThermoFisher company to proceed the Z′-LYTE kinase assay. The simple test method can be summarized as follows.
The compounds prepared in Examples above were each dissolved in DMSO to prepare a 10 mM solution, which was then delivered to the ThermoFisher Scientific company. According to the protocol provided by the ThermoFisher Scientific company, the solution of each compound was diluted in 100% DMSO to a have a concentration of 1,000 nM to 0.32 nM (dilution factor of 1/5). Next, the BTK enzyme was diluted in a kinase buffer (50 mM HEPES (PH 7.5), 10 mM MgCl2, 1 mM EGTA, 0.01% BRIJ-35) to a concentration of up to 10 ng/assay. The test was performed in a low volume 384-well plate (low volume NBS, black 384-well plate). First, 100 nL of the diluted compound solution was added to a sample, and then 2.4 μL of buffer, 5 μL of mixed solution of peptide substrate and kinase at twice (2×) the concentration listed in the protocol, and 2.5 μL of 140 μm ATP solution were added thereto, followed by stirring for 30 seconds. Then, it was allowed for a reaction at room temperature for 60 minutes. Afterwards, 5 μL of a color developing solution was added thereto and stirred for 30 seconds, and fluorescence of the peptide substrate was reacted for 60 minutes. After completion of the reaction, each fluorescence value (400 nm excitation filter, 445/520 nm emission filter) was measured by using a fluorescence plate reader.

| Compound | inhibitory activity against the BTK enzyme |
| --- | --- |
| C=CC(=O)N(C)CC#Cc1c(N)ncnc1-c1cc(F)cc(NC(=O)c2ccc(C(C)C)cc2F)c1C [Example 1] | excellent inhibitory activity |
| C=CC(=O)N(C)CC#Cc1c(N)ncnc1-c1cc(F)cc(NC(=O)c2ccc(C3CC3)cc2F)c1C [Example 2] | excellent inhibitory activity |
| C=CC(=O)N(C)CC#Cc1c(N)ncnc1-c1cc(F)cc(N2CCc3cc(C4CC4)cc(F)c3C2=O)c1 [Example 3, N-(3-(4-amino-6-(3-(6-cyclopropyl-8-fluoro-1-oxo-3,4-dihydroisoquinolin-2(1H)-yl)-5-fluorophenyl)pyrimidin-5-yl)prop-2-yn-1-yl)-N-methylacrylamide] | excellent inhibitory activity |
| C=CC(=O)N(C)CC#Cc1c(N)ncnc1-c1cc(F)cc(N2CCc3cc(C4CC4)cc(F)c3C2=O)c1C [Example 4, N-(3-(4-amino-6-(3-(6-cyclopropyl-8-fluoro-1-oxo-3,4-dihydroisoquinolin-2(1H)-yl)-5-fluoro-2-methylphenyl)pyrimidin-5-yl)prop-2-yn-1-yl)-N-methylacrylamide] | excellent inhibitory activity |
| C=CC(=O)N(C)CC#Cc1c(N)ncnc1-c1cc(F)cc(-n2ccc3cc(C4CC4)cc(F)c3c2=O)c1 [Example 5, N-(3-(4-amino-6-(3-(6-cyclo-8-fluoro-1-oxoisoquinolin-2(1H)-yl)-5-fluorophenyl)pyrimidin-5-yl)prop-2-yn-1-yl)-N-methylacrylamide] | excellent inhibitory activity |
| C=CC(=O)N(C)CC#Cc1c(N)ncnc1-c1cc(F)cc(-n2ccc3cc(C4CC4)cc(F)c3c2=O)c1C [Example 6, N-(3-(4-amino-6-(3-(6-cyclopropyl-8-fluoro-1-oxoisoquinolin-2(1H)-yl)-5-fluoro-2-methylphenyl)pyrimidin-5-yl)prop-2-yn-1-yl)-N-methylacrylamide] | excellent inhibitory activity |
| C=CC(=O)N(C)CC#Cc1c(N)ncnc1-c1cc(F)cc(-n2ccc3cc(C4CC4)cc(F)c3c2=O)c1F [Example 7, N-(3-(4-amino-6-(3-(6-cyclopropyl-8-fluoro-1-oxoisoquinolin-2(1H)-yl)-2,5-difluorophenyl)pyrimidin-5-yl)prop-2-yn-1-yl)-N-methylacrylamide] | excellent inhibitory activity |
| C=CC(=O)N(C)CC#Cc1c(N)ncnc1-c1cc(C)cc(-n2ccc3cc(C4CC4)cc(F)c3c2=O)c1C [Example 8, N-(3-(4-amino-6-(3-(6-cyclopropyl-8-fluoro-1-oxoisoquinolin-2(1H)-yl)-2,5-dimethylphenyl)pyrimidin-5-yl)prop-2-yn-1-yl)-N-methylacrylamide] | excellent inhibitory activity |
| C=CC(=O)NCC#Cc1c(N)ncnc1-c1cc(F)cc(-n2ccc3cc(C4CC4)cc(F)c3c2=O)c1C [Example 9, N-(3-(4-amino-6-(3-(6-cyclopropyl-8-fluoro-1-oxoisoquinolin-2(1H)-yl)-5-fluoro-2-methylphenyl)pyrimidin-5-yl)prop-2-yn-1-yl)acrylamide] | excellent inhibitory activity |
| C=CC(=O)N(C)CC#Cc1c(N)ncnc1-c1cc(F)cc(-n2ncc3cc(C(C)(C)C)cc(F)c3c2=O)c1 [Example 10, N-(3-(4-amino-6-(3-(6-(tert-butyl)-8-fluoro-1-oxophthalazin-2-(1H)-yl)-5-fluorophenyl)pyrimidin-5-yl)prop-2-yn-1-yl)-N-methylacrylamide] | excellent inhibitory activity |
| C=CC(=O)N(C)CC#Cc1c(N)ncnc1-c1cc(F)cc(-n2ncc3cc(C4CC4)ccc3c2=O)c1C [Example 11, N-(3-(4-amino-6-(3-(6-cyclopropyl-1-oxophthalazin-2(1H)-yl)-5-fluoro-2-methylphenyl)pyrimidin-5-yl)prop-2-yn-1-yl)-N-methylacrylamide] | excellent inhibitory activity |
| C=CC(=O)N(C)CC#Cc1c(N)ncnc1-c1cc(F)cc(-n2ncc3cc(C4CC4)cc(F)c3c2=O)c1C [Example 12, N-(3-(4-amino-6-(3-(6-cyclopropyl-8-fluoro-1-oxophthalazin-2(1H)-yl)-5-fluoro-2-methylphenyl)pyrimidin-6-yl)prop-2-yn-1-yl)-N-methylacrylamide] | excellent inhibitory activity |
| C=CC(=O)N(C)CC#Cc1c(N)ncnc1-c1cc(F)cc(-n2ncc3cc(C(C)(C)C)cc(F)c3c2=O)c1C [Example 13] | excellent inhibitory activity |
| C=CC(=O)N(C)CC#Cc1c(N)ncnc1-c1cc(F)cc(-n2ncc3cc(C(C)(C)C)ccc3c2=O)c1 [Example 14] | excellent inhibitory activity |
| C=CC(=O)N(C)CC#Cc1c(N)ncnc1-c1cc(F)cc(-n2cnc3cc(C4CC4)cc(F)c3c2=O)c1 [Example 15, N-(3-(4-amino-6-(3-(7-cyclopropyl-5-fluoro-4-oxoquinazolin-3(4H)-yl)-5-fluorophenyl)pyrimidin-5-yl)prop-2-yn-1-yl)-N-methylacrylamide] | excellent inhibitory activity |
| C=CC(=O)N1CCC[C@@H]1C#Cc1c(N)ncnc1-c1cc(F)cc(-n2ccc3cc(C4CC4)cc(F)c3c2=O)c1C [Example 16, (R)-2-(3-(5-((1-acryloylpyrrolidin-2-yl)ethynyl)-6-aminopyrimidin-4-yl)-5-fluoro-2-methylphenyl)-6-cyclopropyl-8-fluoroisoquinolin-1-(2H)-one] | excellent inhibitory activity |
| C=CC(=O)N1CCC[C@H]1C#Cc1c(N)ncnc1-c1cc(F)cc(-n2ccc3cc(C4CC4)cc(F)c3c2=O)c1C [Example 17, (S)-2-(3-(5-((1-acryloylpyrrolidin-2-yl)ethynyl)-6-aminopyrimidin-4-yl)-6-fluoro-2-methylphenyl)-6-cyclopropyl-8-fluoroisoquinolin-1-(2H)-one] | excellent inhibitory activity |
| C=CC(=O)N1CCC[C@H]1C#Cc1c(N)ncnc1-c1cc(F)cc(-n2ccc3cc(C(C)C)cc(F)c3c2=O)c1C [Example 18, (S)-2-(3-(5-((1-acryloylpyrrolidin-2-yl)ethynyl)-6-aminopyrimidin-4-yl)-6-fluoro-2-methylphenyl)-8-fluoro-6-isoquinolin-1-(2H)-one] | excellent inhibitory activity |
| C=C(F)C(=O)N1CCC[C@H]1C#Cc1c(N)ncnc1-c1cc(F)cc(-n2ccc3cc(C4CC4)cc(F)c3c2=O)c1C [Example 19, (S)-2-(3-(6-amino-5-((1-(2-fluoroacryloyl)pyrrolidin-2-yl)ethynyl)pyrimidin-4-yl)-5-fluoro-2-methylphenyl)-6-cyclopropyl-8-fluoroisoquinolin-1(2H)-one] | excellent inhibitory activity |
| C=C(Cl)C(=O)N1CCC[C@H]1C#Cc1c(N)ncnc1-c1cc(F)cc(-n2ccc3cc(C4CC4)cc(F)c3c2=O)c1C [Example 20, (S)-2-(3-(6-amino-5-((1-(2-chloroacryloyl)pyrrolidin-2-yl)ethynyl)pyrimidin-4-yl)-5-fluoro-2-methylphenyl)-6-cyclopropyl-8-fluoroisoquinolin-1(2H)-one] | excellent inhibitory activity |
| C=CC(=O)N1CCCCC1C#Cc1c(N)ncnc1-c1cc(F)cc(-n2ccc3cc(C4CC4)cc(F)c3c2=O)c1C (stereo not shown) [Example 22, 2-(3-(5-((1-acryloylpiperidin-2-yl)ethynyl)-6-aminopyrimidin-4-yl)-5-fluoro-2-methylphenyl)-6-cyclopropyl-8-isoquinolin-1(2H)-one] | excellent inhibitory activity |
| C=CC(=O)N1CCCC[C@H]1C#Cc1c(N)ncnc1-c1cc(F)cc(-n2ccc3cc(C4CC4)cc(F)c3c2=O)c1C [Example 23] | excellent inhibitory activity |
